# Measurements as given in US8691854B2, “Chemical compounds and the uses thereof as a medicine” (Trophos, priority 2005, dated 2014).
# The name of at least one read-out is uncertain.
# Test system: primary neurones isolated from rat striatum expressing mutated huntingtin
# Experiment: Protection of striatum neurones in a death test induced by over-expression of a mutated form of huntingtin, GFP as reporter gene
# Assay type: cell-based
# Conditions: survival of GFP-positive cells minus DMSO, relative to BDNF (5 ng/ml) minus DMSO, active when ratio larger than 0.2
# Description: Evaluation of the Protection Provided by the Compound of Formula I on Striatum Neurones in a Death Test Induced by Over-Expression of a Mutated Form of Huntingtine by Using GFP as Reporter Gene
# Primary cultures of striatum neurones are prepared as described in the literature (Mao L. et al., Methods Mol. Med., 2003, 79: 379-86).
# Before sowing, an expression vector containing a promoter element followed by the DNA coding for a truncated form of huntingtin which comprises the first 480 amino acids and 68 CAG codons (Saudou et al., Cell, 1998, 95:55-66), purified beforehand, is introduced by electroporation according to the procedure described by Raoul et al., (Neuron, 2002, 35:1067-83).
# A second expression vector, also purified beforehand, containing DNA coding for the green fluorescent protein (GFP) (Columbia University) is also electroporated and is used as a reporter gene.
# The cells which survive electroporation are sown at a density of 4,000 cells per well on 96-well plates. The culture is achieved in 175 μl of Neurobasal medium (GIBCO) complemented with final 1 mM of pyruvate and with B-27 1/100 (Beckton Dickinson). The cells are maintained in the culture for 6 days without changing the medium.
# […] Positive controls are made by adding BDNF (Brain-Derived Neurotrophic Factor) at 5 ng/ml (Tebu) finally. The negative controls only receive 0.5% DMSO.
# Cell death is evaluated after 7 days by counting the number of living cells expressing GFP.
# The activity of the compounds to be tested was evaluated by their capability of preventing death of striatum neurones grown in the Neurobasal medium, as compared with survival of striatum neurones in a medium supplemented with BDNF.
# The results are expressed as a ratio evaluating survival of positive GFP cells in the presence of the compound to be tested. This is therefore the number of living cells after treatment with the compound to be tested, reduced by the number of living cells after treatment with DMSO, based on (divided by) the number of survival cells after treatment with BDNF, reduced by the number of living cells after treatment with DMSO.
# This ratio therefore represents the survival percentage due to the tested compound relatively to survival induced by BDNF.
# In this test, a compound is considered as being active when said ratio is larger than 0.2 i.e. when it has a neuroprotective activity at least equal to 20% of the neuroprotective activity of BDNF.
Structure (SMILES),GFP ratio (0.3 μM compound),GFP ratio (3 μM compound),other results
"FC(F)(F)c1ccc(-c2csc(NN=CC=Cc3ccccc3)n2)cc1 [Example 4, 3-phenyl-2-propenal-[4-(4-trifluoromethylphenyl)-2-thiazolyl]hydrazone]",,,GFP ratio (1 μM compound): >0.2
"Oc1cccc(/C=C/C=NNc2nc(-c3ccc(C(F)(F)F)cc3)cs2)c1 [Example 20, 3-((E)-3-{[4-(4-trifluoromethylphenyl)-thiazol-2-yl]-hydrazono}-propenyl)-phenol]",>0.2,,
"Cc1cc(O)ccc1-c1csc(N/N=C/C=C/c2ccccc2)n1 [Example 27, 3-methyl-4-(2-{N′-[(E)-3-phenylprop-2-en-(E)-ylidene]-hydrazino}-thiazol-4-yl)-phenol]",,>0.2,
"Clc1ccc(-c2csc(NN=CC=Cc3ccccc3)n2)cc1 [Example 31, 3-phenyl-2-propenal-[4-(4-chlorophenyl)-2-thiazolyl]hydrazone]",,>0.2,
"Oc1cccc(/C=C/C=NNc2nc(-c3ccc(Cl)cc3)cs2)c1 [Example 15, 3-((e)-3-{[4-(4-chlorophenyl)-thiazol-2-yl]-hydrazono}-propenyl)-phenol]",,,GFP ratio (1 μM compound): >0.2
"Cc1ccc(-c2csc(NN=CC=Cc3ccccc3)n2)cc1 [Example 32, 3-phenyl-2-propenal-[4-(4-methylphenyl)-2-thiazolyl]hydrazone]",,>0.2,
"OCc1cccc(/C=C/C=NNc2nc(-c3ccc(C(F)(F)F)cc3)cs2)c1 [Example 28, [3-((E)-3-{[4-(4-trifluoromethylphenyl)-thiazol-2-yl]-hydrazono}-propenyl)-phenyl]-methanol]",>0.2,,
"NC(=O)c1cccc(/C=C/C=NNc2nc(-c3ccc(C(F)(F)F)cc3)cs2)c1 [Example 23, 3-((e)-3-{[4-(4-trifluoromethylphenyl)-thiazol-2-yl]-hydrazono}-propenyl)-benzamide]",>0.2,,
